{"source": "patent US20090208979A1", "about": "“Method for identifying antipsychotic drug candidates” (priority 2008, published 2009)", "key": {"[1]": {"system": "PKCβ mRNA", "conditions": "rats, 14 days daily IP (haloperidol 1 mg/kg, fluvoxamine 10 mg/kg, clozapine 10 mg/kg); frontal cortex; vs control"}, "[2]": {"system": "PKC", "conditions": "rats, chronic 14 days IP; frontal cortex; vs control"}, "[3]": {"system": "ERK2", "conditions": "rats, single IP injection, normalized to total ERK2, vs control"}, "[4]": {"system": "PKCγ mRNA", "conditions": "rats, 14 days daily IP (haloperidol 1 mg/kg, fluvoxamine 10 mg/kg, clozapine 10 mg/kg); frontal cortex; vs control"}}, "note": "Where two headings read alike, the source gives them in different places. For at least one compound, name, drawing or mass did not settle the structure.", "data": [{"smiles": "CN1CCN(C2=Nc3cc(Cl)ccc3Nc3ccccc32)CC1", "note": "[clozapine]", "values": [{"measurement": "PKCβ mRNA level", "setting": "[1]", "result": "significantly increased"}, {"measurement": "increase of PKC phosphorylation in the membranal fraction", "setting": "[2]", "result": "did not affect"}, {"measurement": "increase of PKC phosphorylation in whole lysate", "setting": "[2]", "result": "did not affect"}, {"measurement": "level of phosphorylated ERK2, cytosolic compartment", "setting": "[3]; 30 minutes following injection", "result": "decreased"}, {"measurement": "level of phosphorylated ERK2, membranal compartment", "setting": "[3]; 30 minutes following injection", "result": "decreased"}, {"measurement": "level of phosphorylated ERK2, cytosolic compartment", "setting": "[3]; 1 h following injection", "result": "decreased"}, {"measurement": "level of phosphorylated ERK2, membranal compartment", "setting": "[3]; 1 h following injection", "result": "decreased"}, {"measurement": "PKCγ mRNA level", "setting": "[4]", "result": "significantly increased"}]}]}
